According to the supplement of paper PMC8728848:
Some of the results follow.

Tests used:
Assay in all cases: glycan array binding signal (z-score within array); higher = stronger binding
Conditions in all cases: glycan notation: IUPAC condensed, linker removed
[1] = molecular target: Gal(b1-4)GlcNAc(b1-6)[Gal(b1-3)]GalNAc
In short: (§1)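 Glycan array binding is given as a within-array Z-score, which can be read as non-binding when negative. The arrays, 3228 of them, came from the Consortium for Functional Glycomics database and were retained only where the protein sequence was available. Z-scores were averaged across arrays of the same protein sequence at different concentrations or buffers and across linkers.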

Gal3S(b1-3)GalNAc = molecular target: Gal3S(b1-3)GalNAc
In short: as §1

Gal3S(b1-3)GlcNAc = molecular target: Gal3S(b1-3)GlcNAc
In short: as §1

[2] = molecular target: Gal3S(b1-3)[Fuc(a1-4)]GlcNAc
In short: as §1

Gal3S(b1-4)Glc = molecular target: Gal3S(b1-4)Glc
In short: as §1

Gal3S(b1-4)Glc6S = molecular target: Gal3S(b1-4)Glc6S
In short: as §1

Gal3S(b1-4)GlcNAc = molecular target: Gal3S(b1-4)GlcNAc
In short: as §1

Gal3S(b1-4)GlcNAc6S = molecular target: Gal3S(b1-4)GlcNAc6S
In short: as §1

[3] = molecular target: Gal3S(b1-4)[Fuc(a1-3)]Glc
In short: as §1

[4] = molecular target: Gal3S(b1-4)[Fuc(a1-3)]Glc6S
In short: as §1

Gal3S4S(b1-4)GlcNAc = molecular target: Gal3S4S(b1-4)GlcNAc
In short: as §1

Gal3S6S(b1-4)GlcNAc = molecular target: Gal3S6S(b1-4)GlcNAc
In short: as §1

Gal3S6S(b1-4)GlcNAc6S = molecular target: Gal3S6S(b1-4)GlcNAc6S
In short: as §1

Gal4S(b1-4)GlcNAc = molecular target: Gal4S(b1-4)GlcNAc
In short: as §1

Gal4S6S(b1-4)GlcNAc = molecular target: Gal4S6S(b1-4)GlcNAc
In short: as §1

Gal6S(b1-4)Glc = molecular target: Gal6S(b1-4)Glc
In short: as §1

Gal6S(b1-4)Glc6S = molecular target: Gal6S(b1-4)Glc6S
In short: as §1

Gal6S(b1-4)GlcNAc = molecular target: Gal6S(b1-4)GlcNAc
In short: as §1

Gal6S(b1-4)GlcNAc6S = molecular target: Gal6S(b1-4)GlcNAc6S
In short: as §1

GalNAc(a1-3)Gal = molecular target: GalNAc(a1-3)Gal
In short: as §1

GalNAc(a1-3)GalNAc = molecular target: GalNAc(a1-3)GalNAc
In short: as §1

[5] = molecular target: GalNAc(a1-3)GalNAc(a1-3)Gal(a1-4)Gal(b1-4)GlcNAc
In short: as §1

GalNAc(b1-3)Gal = molecular target: GalNAc(b1-3)Gal
In short: as §1

[6] = molecular target: GalNAc(b1-3)Gal(a1-4)Gal(b1-4)GlcNAc
In short: as §1

[7] = molecular target: GalNAc(b1-3)Gal(a1-4)Gal(b1-4)GlcNAc(b1-3)Gal(b1-4)Glc
In short: as §1

[8] = molecular target: GalNAc(b1-3)Gal(a1-6)Gal(b1-4)Glc
In short: as §1

GalNAc(b1-3)GalNAc = molecular target: GalNAc(b1-3)GalNAc
In short: as §1

GalNAc(b1-4)GlcNAc = molecular target: GalNAc(b1-4)GlcNAc
In short: as §1

[9] = molecular target: GalNAc(b1-4)GlcNAc(b1-2)Man(a1-3)[GalNAc(b1-4)GlcNAc(b1-2)Man(a1-6)]Man(b1-4)GlcNAc(b1-4)GlcNAc
In short: as §1

Glc(a1-4)Glc = molecular target: Glc(a1-4)Glc
In short: as §1

Glc(a1-6)Glc(a1-6)Glc = molecular target: Glc(a1-6)Glc(a1-6)Glc
In short: as §1

Glc(b1-4)Glc = molecular target: Glc(b1-4)Glc
In short: as §1

Glc(b1-6)Glc = molecular target: Glc(b1-6)Glc
In short: as §1

GlcA(b1-3)Gal = molecular target: GlcA(b1-3)Gal
In short: as §1

GlcA(b1-3)GlcNAc = molecular target: GlcA(b1-3)GlcNAc
In short: as §1

GlcA(b1-6)Gal = molecular target: GlcA(b1-6)Gal
In short: as §1

[10] = molecular target: GlcNAc(a1-3)Gal(b1-4)GlcNAc
In short: as §1

[11] = molecular target: GlcNAc(a1-4)Gal(b1-3)GlcNAc
In short: as §1

B1: PEB1 (Campylobacter jejuni), Q0P9X8 (protein)
chain: MVFRKSLLKLAVFALGACVAFSNANAAEGKLESIKSKGQLIVGVKNDVPHYALLDQATGEIKGFEVDVAKLLAKSILGDDKKIKLVAVNAKTRGPLLDNGSVDAVIATFTITPERKRIYNFSEPYYQDAIGLLVLKEKKYKSLADMKGANIGVAQAATTKKAIGEAAKKIGIDVKFSEFPDYPSIKAALDAKRVDAFSVDKSILLGYVDDKSEILPDSFEPQSYGIVTKKDDPAFAKYVDDFVKEHKNEIDALAKKWGL
[1]
  glycan array binding signal (z-score): 0.298
Gal3S(b1-3)GalNAc
  glycan array binding signal (z-score): 0.473
Gal3S(b1-3)GlcNAc
  glycan array binding signal (z-score): 0.944
[2]
  glycan array binding signal (z-score): -0.449
Gal3S(b1-4)Glc
  glycan array binding signal (z-score): -1.26
Gal3S(b1-4)Glc6S
  glycan array binding signal (z-score): 1.36
Gal3S(b1-4)GlcNAc
  glycan array binding signal (z-score): -0.108
Gal3S(b1-4)GlcNAc6S
  glycan array binding signal (z-score): -0.449
[3]
  glycan array binding signal (z-score): 1.04
[4]
  glycan array binding signal (z-score): 0.849
Gal3S4S(b1-4)GlcNAc
  glycan array binding signal (z-score): -0.191
Gal3S6S(b1-4)GlcNAc
  glycan array binding signal (z-score): 0.952
Gal3S6S(b1-4)GlcNAc6S
  glycan array binding signal (z-score): 0.386
Gal4S(b1-4)GlcNAc
  glycan array binding signal (z-score): -0.323
Gal4S6S(b1-4)GlcNAc
  glycan array binding signal (z-score): 0.407
Gal6S(b1-4)Glc
  glycan array binding signal (z-score): 0.11
Gal6S(b1-4)Glc6S
  glycan array binding signal (z-score): 0.171
Gal6S(b1-4)GlcNAc
  glycan array binding signal (z-score): 0.319
Gal6S(b1-4)GlcNAc6S
  glycan array binding signal (z-score): 0.367
GalNAc(a1-3)Gal
  glycan array binding signal (z-score): -0.378
GalNAc(a1-3)GalNAc
  glycan array binding signal (z-score): 0.558
[5]
  glycan array binding signal (z-score): -0.658
GalNAc(b1-3)Gal
  glycan array binding signal (z-score): -1.12
[6]
  glycan array binding signal (z-score): -0.938
[7]
  glycan array binding signal (z-score): -1.06
[8]
  glycan array binding signal (z-score): 0.441
GalNAc(b1-3)GalNAc
  glycan array binding signal (z-score): -0.428
GalNAc(b1-4)GlcNAc
  glycan array binding signal (z-score): -0.358
[9]
  glycan array binding signal (z-score): 4.17
Glc(a1-4)Glc
  glycan array binding signal (z-score): -0.677
Glc(a1-6)Glc(a1-6)Glc
  glycan array binding signal (z-score): -0.133
Glc(b1-4)Glc
  glycan array binding signal (z-score): 0.505
Glc(b1-6)Glc
  glycan array binding signal (z-score): 0.439
GlcA(b1-3)Gal
  glycan array binding signal (z-score): -0.129
GlcA(b1-3)GlcNAc
  glycan array binding signal (z-score): -1
GlcA(b1-6)Gal
  glycan array binding signal (z-score): -0.703
[10]
  glycan array binding signal (z-score): -0.709
[11]
  glycan array binding signal (z-score): -0.298
